Measured values as given in publication PMC8938434, “Atomic resolution dynamics of cohesive interactions in phase-separated Nup98 FG domains” (Nature Communications, 2022).
These are yes or no findings as the source states them, for the method shown.

Biological target: T1, prf.GLFG_(52 × 12)
T1 construct: engineered from the Tetrahymena thermophila MacNup98A FG domain; plasmid pSNG064; Isotope-labelled (15N, 13C) for NMR; also called perfect repeat; source: E. coli, inclusion bodies, Ni(II) chelate column, tag cut off with bdSENP1 protease, lyophilized; not shown: His14-ZZ-scSUMO, N-terminal, cleaved
T1 chain: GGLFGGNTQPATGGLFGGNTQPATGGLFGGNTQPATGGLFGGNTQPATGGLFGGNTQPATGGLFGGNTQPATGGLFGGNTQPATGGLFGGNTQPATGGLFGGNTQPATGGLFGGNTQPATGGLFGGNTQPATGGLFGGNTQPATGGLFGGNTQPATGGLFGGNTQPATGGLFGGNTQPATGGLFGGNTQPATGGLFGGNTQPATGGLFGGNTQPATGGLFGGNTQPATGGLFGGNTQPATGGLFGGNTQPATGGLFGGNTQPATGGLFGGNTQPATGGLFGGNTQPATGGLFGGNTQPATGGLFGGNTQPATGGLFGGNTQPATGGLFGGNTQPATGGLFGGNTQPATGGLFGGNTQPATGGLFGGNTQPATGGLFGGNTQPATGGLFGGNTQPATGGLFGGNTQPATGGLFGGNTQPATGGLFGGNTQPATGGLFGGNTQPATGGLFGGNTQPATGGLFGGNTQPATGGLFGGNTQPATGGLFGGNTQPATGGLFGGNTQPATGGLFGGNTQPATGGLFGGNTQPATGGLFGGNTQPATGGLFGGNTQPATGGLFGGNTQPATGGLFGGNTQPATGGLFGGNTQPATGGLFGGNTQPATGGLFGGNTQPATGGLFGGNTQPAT
Experiment: condition: only below the transition temperature (Tp) ~16 °C; dynamic light scattering; dilution of prf.GLFG_(52 × 12) in NaCl solution with 20 mM NaPi pH 6.8, temperature raised 1 °C per min from 2 to 40 °C; below the transition temperature (Tp ~16 °C); both purified

- binding: no binding
B1: prf.GLFG_(52 × 12) (protein)
chain: T1 chain
